The supplement of paper PMC10849652
Some of the results follow.

Amino acid sequences for entries named in this document (tags omitted). A change or cut given only in a name is not applied to a line headed by its entry.
UniProt O76095: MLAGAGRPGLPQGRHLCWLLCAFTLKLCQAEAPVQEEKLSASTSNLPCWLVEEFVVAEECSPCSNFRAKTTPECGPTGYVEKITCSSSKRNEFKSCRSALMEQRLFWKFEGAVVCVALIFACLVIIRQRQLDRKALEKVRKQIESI
UniProt Q8NB78: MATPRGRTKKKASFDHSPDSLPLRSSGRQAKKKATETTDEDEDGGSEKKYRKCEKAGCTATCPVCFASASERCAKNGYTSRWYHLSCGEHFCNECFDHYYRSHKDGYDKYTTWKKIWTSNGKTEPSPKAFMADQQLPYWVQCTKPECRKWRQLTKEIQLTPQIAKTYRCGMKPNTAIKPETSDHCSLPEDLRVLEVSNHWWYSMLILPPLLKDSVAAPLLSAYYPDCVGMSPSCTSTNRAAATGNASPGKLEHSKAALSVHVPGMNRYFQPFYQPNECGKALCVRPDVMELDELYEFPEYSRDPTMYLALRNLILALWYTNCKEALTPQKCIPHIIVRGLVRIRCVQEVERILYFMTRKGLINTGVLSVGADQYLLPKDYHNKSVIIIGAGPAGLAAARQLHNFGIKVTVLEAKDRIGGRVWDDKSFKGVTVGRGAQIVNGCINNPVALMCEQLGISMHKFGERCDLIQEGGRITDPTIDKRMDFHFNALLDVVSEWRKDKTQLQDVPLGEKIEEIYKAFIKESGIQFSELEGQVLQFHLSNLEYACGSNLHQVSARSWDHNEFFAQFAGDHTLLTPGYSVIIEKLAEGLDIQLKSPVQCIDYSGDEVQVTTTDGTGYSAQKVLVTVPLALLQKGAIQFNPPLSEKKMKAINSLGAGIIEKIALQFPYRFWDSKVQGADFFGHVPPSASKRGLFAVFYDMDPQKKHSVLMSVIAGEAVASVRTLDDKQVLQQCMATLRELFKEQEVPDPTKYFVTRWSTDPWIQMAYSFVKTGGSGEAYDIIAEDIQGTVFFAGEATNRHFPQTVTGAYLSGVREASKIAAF
UniProt Q9H910: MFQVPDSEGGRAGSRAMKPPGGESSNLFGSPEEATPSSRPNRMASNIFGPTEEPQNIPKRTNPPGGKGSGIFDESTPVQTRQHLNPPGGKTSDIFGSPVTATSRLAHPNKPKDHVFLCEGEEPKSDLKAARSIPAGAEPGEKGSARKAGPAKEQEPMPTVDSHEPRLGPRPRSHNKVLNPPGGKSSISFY
UniProt Q969F8, whole entry, looked up: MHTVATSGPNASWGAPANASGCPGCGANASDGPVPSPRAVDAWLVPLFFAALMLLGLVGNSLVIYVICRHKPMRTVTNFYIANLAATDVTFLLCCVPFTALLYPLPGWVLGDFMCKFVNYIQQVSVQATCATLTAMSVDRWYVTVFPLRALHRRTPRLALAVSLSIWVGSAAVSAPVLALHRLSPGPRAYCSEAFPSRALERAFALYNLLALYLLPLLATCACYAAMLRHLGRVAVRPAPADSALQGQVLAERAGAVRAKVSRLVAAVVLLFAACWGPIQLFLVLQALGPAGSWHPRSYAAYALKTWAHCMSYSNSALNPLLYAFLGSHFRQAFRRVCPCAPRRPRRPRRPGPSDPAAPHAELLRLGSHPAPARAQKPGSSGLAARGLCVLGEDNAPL
UniProt O95251, whole entry, looked up: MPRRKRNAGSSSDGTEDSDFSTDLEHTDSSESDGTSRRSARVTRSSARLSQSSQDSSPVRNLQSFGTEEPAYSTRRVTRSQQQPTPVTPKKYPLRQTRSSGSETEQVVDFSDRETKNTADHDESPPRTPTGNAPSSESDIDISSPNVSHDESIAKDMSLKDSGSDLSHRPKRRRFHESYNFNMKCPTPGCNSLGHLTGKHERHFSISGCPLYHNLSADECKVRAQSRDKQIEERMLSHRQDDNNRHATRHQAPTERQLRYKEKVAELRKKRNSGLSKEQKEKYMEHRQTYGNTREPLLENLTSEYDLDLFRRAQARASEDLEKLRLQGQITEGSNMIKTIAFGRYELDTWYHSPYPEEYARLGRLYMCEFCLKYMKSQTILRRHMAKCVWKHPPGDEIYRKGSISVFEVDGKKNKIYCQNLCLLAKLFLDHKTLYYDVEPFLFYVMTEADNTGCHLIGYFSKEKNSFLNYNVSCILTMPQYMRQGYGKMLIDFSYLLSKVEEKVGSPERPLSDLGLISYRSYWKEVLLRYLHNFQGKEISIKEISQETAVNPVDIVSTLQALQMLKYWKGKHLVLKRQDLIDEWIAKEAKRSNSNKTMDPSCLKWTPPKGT
UniProt Q13351: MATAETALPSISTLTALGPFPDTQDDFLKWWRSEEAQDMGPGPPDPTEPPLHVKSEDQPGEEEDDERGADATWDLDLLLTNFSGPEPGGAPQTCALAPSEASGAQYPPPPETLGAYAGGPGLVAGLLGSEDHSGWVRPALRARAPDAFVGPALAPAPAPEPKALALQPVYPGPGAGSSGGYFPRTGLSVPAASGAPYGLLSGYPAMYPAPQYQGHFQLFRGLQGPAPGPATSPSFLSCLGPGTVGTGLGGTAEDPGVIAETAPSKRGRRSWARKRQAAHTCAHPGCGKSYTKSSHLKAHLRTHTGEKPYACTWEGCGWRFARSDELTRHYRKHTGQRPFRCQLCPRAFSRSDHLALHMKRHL
UniProt O94854: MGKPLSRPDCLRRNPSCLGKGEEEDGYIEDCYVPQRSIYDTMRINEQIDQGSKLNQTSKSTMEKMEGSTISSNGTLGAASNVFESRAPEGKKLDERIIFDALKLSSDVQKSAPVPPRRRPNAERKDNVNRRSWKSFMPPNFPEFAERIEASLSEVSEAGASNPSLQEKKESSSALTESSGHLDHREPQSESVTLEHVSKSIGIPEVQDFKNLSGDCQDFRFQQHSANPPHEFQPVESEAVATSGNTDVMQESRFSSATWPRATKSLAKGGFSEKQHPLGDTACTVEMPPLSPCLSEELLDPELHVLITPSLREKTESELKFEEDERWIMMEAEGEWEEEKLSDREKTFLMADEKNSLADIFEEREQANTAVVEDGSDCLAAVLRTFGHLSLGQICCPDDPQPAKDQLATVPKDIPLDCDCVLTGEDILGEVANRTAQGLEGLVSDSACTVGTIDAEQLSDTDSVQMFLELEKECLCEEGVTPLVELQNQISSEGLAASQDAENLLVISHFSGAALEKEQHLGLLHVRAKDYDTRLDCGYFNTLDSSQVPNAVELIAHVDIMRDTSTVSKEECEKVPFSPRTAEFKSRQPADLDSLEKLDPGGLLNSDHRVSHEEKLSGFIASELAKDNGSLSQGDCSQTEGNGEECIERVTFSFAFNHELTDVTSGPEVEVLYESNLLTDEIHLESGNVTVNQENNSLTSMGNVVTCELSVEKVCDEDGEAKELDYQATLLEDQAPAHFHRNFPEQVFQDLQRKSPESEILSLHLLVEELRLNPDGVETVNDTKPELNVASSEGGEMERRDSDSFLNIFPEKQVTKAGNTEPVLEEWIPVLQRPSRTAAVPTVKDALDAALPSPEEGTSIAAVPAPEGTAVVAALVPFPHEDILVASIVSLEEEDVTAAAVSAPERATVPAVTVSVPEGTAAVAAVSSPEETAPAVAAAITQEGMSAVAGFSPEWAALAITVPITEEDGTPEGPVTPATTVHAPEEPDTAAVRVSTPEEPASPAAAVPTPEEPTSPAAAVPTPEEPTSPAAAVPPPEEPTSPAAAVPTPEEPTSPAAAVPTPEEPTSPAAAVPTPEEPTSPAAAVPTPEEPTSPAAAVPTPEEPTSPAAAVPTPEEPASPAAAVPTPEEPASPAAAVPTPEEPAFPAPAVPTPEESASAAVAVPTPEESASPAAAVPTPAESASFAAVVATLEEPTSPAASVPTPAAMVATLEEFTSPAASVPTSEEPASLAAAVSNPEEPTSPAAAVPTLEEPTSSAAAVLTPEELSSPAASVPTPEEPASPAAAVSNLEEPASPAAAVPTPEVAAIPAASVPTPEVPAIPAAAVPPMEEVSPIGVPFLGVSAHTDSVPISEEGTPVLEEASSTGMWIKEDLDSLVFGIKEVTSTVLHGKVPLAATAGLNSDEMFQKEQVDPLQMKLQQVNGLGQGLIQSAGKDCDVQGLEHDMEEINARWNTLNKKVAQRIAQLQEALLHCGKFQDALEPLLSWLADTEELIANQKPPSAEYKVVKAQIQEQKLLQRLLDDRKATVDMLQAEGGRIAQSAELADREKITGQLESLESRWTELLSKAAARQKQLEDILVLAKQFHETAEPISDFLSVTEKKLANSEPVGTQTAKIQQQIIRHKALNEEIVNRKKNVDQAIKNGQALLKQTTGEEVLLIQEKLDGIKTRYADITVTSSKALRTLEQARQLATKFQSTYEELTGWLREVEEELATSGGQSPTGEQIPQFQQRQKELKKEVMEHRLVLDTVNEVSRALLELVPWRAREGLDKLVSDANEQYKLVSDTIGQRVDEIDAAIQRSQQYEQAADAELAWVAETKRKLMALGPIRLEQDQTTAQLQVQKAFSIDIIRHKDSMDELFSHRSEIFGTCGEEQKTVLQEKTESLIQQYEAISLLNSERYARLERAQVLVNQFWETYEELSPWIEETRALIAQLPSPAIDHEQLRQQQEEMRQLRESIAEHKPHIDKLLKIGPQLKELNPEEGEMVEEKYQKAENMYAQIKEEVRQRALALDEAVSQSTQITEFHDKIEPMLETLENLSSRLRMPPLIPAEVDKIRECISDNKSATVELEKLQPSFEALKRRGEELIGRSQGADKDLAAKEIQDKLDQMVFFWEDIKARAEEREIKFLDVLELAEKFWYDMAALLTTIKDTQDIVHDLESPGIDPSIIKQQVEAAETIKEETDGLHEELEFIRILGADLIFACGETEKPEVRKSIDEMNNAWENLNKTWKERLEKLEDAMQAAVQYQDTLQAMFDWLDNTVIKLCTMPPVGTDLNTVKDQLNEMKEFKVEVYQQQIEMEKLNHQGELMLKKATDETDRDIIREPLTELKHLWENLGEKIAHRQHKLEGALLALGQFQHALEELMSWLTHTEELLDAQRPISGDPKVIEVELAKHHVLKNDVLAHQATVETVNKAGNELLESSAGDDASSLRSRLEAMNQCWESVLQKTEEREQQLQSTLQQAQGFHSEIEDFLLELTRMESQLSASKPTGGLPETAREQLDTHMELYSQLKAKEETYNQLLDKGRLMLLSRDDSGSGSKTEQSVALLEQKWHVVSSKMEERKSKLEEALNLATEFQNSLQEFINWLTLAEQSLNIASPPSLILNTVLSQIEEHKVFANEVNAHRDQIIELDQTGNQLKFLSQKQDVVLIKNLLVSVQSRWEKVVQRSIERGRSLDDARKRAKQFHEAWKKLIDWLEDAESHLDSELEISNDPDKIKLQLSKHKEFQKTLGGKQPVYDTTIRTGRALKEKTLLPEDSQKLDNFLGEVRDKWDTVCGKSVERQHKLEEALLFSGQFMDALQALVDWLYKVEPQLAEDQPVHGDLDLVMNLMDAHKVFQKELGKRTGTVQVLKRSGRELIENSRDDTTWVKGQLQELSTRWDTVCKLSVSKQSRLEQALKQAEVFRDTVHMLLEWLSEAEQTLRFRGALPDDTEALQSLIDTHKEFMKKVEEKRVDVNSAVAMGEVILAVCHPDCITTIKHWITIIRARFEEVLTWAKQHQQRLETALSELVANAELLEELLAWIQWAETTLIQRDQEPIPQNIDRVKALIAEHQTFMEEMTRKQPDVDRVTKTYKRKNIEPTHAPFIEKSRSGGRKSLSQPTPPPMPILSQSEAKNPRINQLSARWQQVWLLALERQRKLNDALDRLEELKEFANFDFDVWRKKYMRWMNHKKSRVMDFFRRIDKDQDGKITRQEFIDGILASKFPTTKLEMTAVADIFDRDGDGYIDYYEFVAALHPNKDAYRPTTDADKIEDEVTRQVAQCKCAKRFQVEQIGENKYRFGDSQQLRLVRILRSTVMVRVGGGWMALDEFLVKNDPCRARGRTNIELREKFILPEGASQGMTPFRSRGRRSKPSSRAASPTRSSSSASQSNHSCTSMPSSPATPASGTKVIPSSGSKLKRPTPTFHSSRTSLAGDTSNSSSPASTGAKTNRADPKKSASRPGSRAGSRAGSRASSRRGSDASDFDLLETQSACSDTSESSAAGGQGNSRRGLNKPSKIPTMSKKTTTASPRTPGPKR
UniProt Q8N6L1: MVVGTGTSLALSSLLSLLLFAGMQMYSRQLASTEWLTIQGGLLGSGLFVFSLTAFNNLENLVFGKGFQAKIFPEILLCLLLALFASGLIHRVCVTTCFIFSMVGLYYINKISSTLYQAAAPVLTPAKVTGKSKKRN
UniProt Q8IXV7: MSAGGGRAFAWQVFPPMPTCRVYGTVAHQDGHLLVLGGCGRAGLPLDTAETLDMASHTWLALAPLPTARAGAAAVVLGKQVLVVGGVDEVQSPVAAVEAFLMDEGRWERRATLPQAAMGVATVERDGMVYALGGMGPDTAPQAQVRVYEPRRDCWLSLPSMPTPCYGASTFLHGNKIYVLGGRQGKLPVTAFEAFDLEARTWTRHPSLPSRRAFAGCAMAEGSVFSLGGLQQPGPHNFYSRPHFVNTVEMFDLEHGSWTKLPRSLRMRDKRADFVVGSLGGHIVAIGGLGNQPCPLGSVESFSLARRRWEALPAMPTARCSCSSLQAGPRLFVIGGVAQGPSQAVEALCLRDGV

What was measured:
Experiment in all cases: log2 fold change, soluble protein after heating vs DMSO (PISA); higher = thermal stabilisation; K562 cells, 10 uM, 30 min; active = over 0.2 and 3.5 SD of the protein, either way, in both replicates (recomputed)
bafetinib = compound: Cc1ccc(NC(=O)c2ccc(CN3CC[C@H](N(C)C)C3)c(C(F)(F)F)c2)cc1Nc1nccc(-c2cncnc2)n1 [bafetinib]
In short: (§1)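 Thermal stability values are relative to control samples and come from duplicates. They are expressed as log2 fold changes. For measurement, K562 cells (2×10^6 cells/mL) received 10 μM compound for 30 min, and aliquots were heated for 3 min over 48°C-58°C, pooled, and extracted at 4°C in PBS with 0.5% NP-40. Soluble protein, the supernatant after 21,000xg for 90 min, was quantified by TMTpro 16plex LC-MS/MS with equalised channel sums.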

[1] = compound: Cc1cccc(CC(=O)N2CCc3c2ccc(-c2cn(C)c4ncnc(N)c24)c3F)n1
In short: as §1

nilotinib = compound: Cc1cn(-c2cc(NC(=O)c3ccc(C)c(Nc4nccc(-c5cccnc5)n4)c3)cc(C(F)(F)F)c2)cn1 [nilotinib]
In short: as §1

[2] = compound: Cc1nc(Nc2n[nH]c3c2CN(C(=O)N[C@H](CN(C)C)c2ccccc2)C3(C)C)c2sccc2n1
In short: as §1

[3] = compound: Cc1ncc(-c2ccnc(Nc3ccc(S(C)(=O)=O)cc3)n2)n1C(C)C
In short: as §1

[4] = compound: Cn1cc(-c2ccc3nnc(C(F)(F)c4ccc5ncccc5c4)n3n2)cn1
In short: as §1

mubritinib = compound: FC(F)(F)c1ccc(/C=C/c2nc(COc3ccc(CCCCn4ccnn4)cc3)co2)cc1 [mubritinib]
In short: as §1

dasatinib = compound: Cc1nc(Nc2ncc(C(=O)Nc3c(C)cccc3Cl)s2)cc(N2CCN(CCO)CC2)n1 [dasatinib]
In short: as §1

[5] = compound: Cn1cc(-c2ccc3c(c2)CCN3C(=O)Cc2cccc(C(F)(F)F)c2)c2c(N)ncnc21
In short: as §1

tipifarnib = compound: Cn1cncc1[C@@](N)(c1ccc(Cl)cc1)c1ccc2c(c1)c(-c1cccc(Cl)c1)cc(=O)n2C [tipifarnib]
In short: as §1

Measured: log2 fold change

KIFC3 isoform 6 (UniProt Q9BVG8)
inactive: bafetinib -0.142 | [1] -0.26 | nilotinib -0.171 | [2] 0.088 | [3] -0.08 | [4] 0.187 | mubritinib 0.088

KCNN4 (UniProt O15554)
inactive: bafetinib -0.311 | nilotinib 0.114 | [2] 0.076 | dasatinib 0.039 | [3] 0.1 | [5] -0.219 | [4] -0.01 | tipifarnib 0.04 | mubritinib -0.03

KALRN (UniProt O60229)
inactive: bafetinib 0.044 | nilotinib -0.15 | [2] -0.061 | [3] 0.059 | [5] 0.118

JTB (UniProt O76095)
inactive: bafetinib 0.009 | nilotinib 0.047 | [2] -0.089 | dasatinib -0.028 | [3] -0.027 | [5] -0.098 | tipifarnib 0.009 | mubritinib 0.008

KDM1B (UniProt Q8NB78)
inactive: bafetinib -0.243 | nilotinib -0.11 | [2] -0.092 | dasatinib -0.599 | [3] 0.202 | mubritinib -0.077

JPT2 isoform 2 (UniProt Q9H910)
inactive: bafetinib -0.041 | nilotinib 0.127 | [2] 0.004 | [3] -0.053 | tipifarnib 0.033 | mubritinib 0.004

KISS1R (UniProt Q969F8)
inactive: bafetinib 0.25 | [1] -0.002 | dasatinib -0.123 | [4] -0.056 | tipifarnib -0.15 | mubritinib -0.077

KIF15 (UniProt Q9NS87)
inactive: bafetinib 0.158 | [1] 0.037 | dasatinib 0.01 | [5] -0.213 | [4] -0.086 | mubritinib -0.088

Fetched one by one from above (three):
KALRN (UniProt O60229)
inactive: bafetinib 0.044 | nilotinib -0.15 | [2] -0.061 | [3] 0.059 | [5] 0.118

KISS1R (UniProt Q969F8)
inactive: bafetinib 0.25 | [1] -0.002 | dasatinib -0.123 | [4] -0.056 | tipifarnib -0.15 | mubritinib -0.077

KIF15 (UniProt Q9NS87)
inactive: bafetinib 0.158 | [1] 0.037 | dasatinib 0.01 | [5] -0.213 | [4] -0.086 | mubritinib -0.088

Following part.

KIAA0930 isoform 2 (UniProt Q6ICG6)
inactive: bafetinib -0.013 | nilotinib 0.021 | [2] -0.076 | dasatinib 0.07 | [3] -0.054 | [5] 0.309 | tipifarnib 0.009 | mubritinib -0.086

KIF3B (UniProt O15066)
inactive: bafetinib 0.007 | [1] 0.122 | dasatinib -0.06 | [5] 0.002 | [4] -0.048 | tipifarnib -0.07 | mubritinib 0.115

KMT2C isoform 3 (UniProt Q8NEZ4)
inactive: bafetinib -0.209 | [1] -0.041 | nilotinib -0.049 | [2] -0.093 | dasatinib 0.043 | [3] 0.001 | [5] 0.094 | [4] -0.215 | mubritinib 0.083

KIF11 (UniProt P52732)
inactive: bafetinib 0.043 | [1] 0.044 | nilotinib -0.057 | [2] -0.031 | dasatinib -0.075 | [3] 0.088 | [5] -0.06 | [4] -0.002 | tipifarnib -0.078 | mubritinib -0.025

KIFAP3 (UniProt Q92845)
inactive: bafetinib 0.134 | nilotinib -0.228 | [2] 0.075 | [3] 0.106

KAT7 (UniProt O95251)
inactive: bafetinib -0.095 | nilotinib 0.105 | [2] 0.059 | [3] 0.001 | [4] -0.014 | tipifarnib 0.058 | mubritinib 0.113

KIF13B (UniProt Q9NQT8)
inactive: bafetinib -0.007 | [1] 0.042 | dasatinib -0.189 | [5] 0.076 | tipifarnib 0.07 | mubritinib -0.147

KLF1 (UniProt Q13351)
inactive: bafetinib 0.207 | [1] 0.052 | nilotinib -0.061 | [2] 0.073 | dasatinib -0.456 | [3] -0.059 | [4] -0.12 | tipifarnib 0.02 | mubritinib -0.266

KDELR1 (UniProt P24390)
inactive: bafetinib -0.102 | nilotinib 0.038 | [2] -0.025 | dasatinib -0.436 | [3] -0.342 | [4] 0.172 | tipifarnib 0.132 | mubritinib -0.007

KIDINS220 isoform 2 (UniProt Q9ULH0)
inactive: bafetinib -0.102 | nilotinib -0.126 | [2] 0.046 | dasatinib 0.078 | [3] -0.025

JUNB (UniProt P17275)
inactive: bafetinib -0.067 | [1] -0.038 | nilotinib -0.073 | [2] 0.009 | [3] -0.059 | [5] -0.072 | [4] 0.182 | mubritinib -0.03

KAT6B (UniProt Q8WYB5)
inactive: bafetinib -0.02 | [1] -0.026 | nilotinib -0.083 | [2] 0.034 | [3] -0.042 | [4] -0.01 | tipifarnib 0.112 | mubritinib 0.03

KLHL7 isoform 3 (UniProt Q8IXQ5)
inactive: bafetinib -0.111 | nilotinib -0.083 | [2] -0.088 | dasatinib 0.084 | [3] -0.127 | [5] 0.024 | tipifarnib -0.098 | mubritinib -0.001

KIAA0513 (UniProt O60268)
inactive: bafetinib -0.165 | [1] -0.25 | nilotinib -0.262 | [2] -0.171 | [3] 0.164 | [5] -0.161 | tipifarnib 0.021 | mubritinib -0.113

KCTD7 (UniProt Q96MP8)
inactive: bafetinib 0.219 | [1] 0.056 | nilotinib -0.024 | [2] -0.153 | dasatinib 0.072 | [3] -0.13 | tipifarnib 0.086 | mubritinib 0.099

KIAA0754 (UniProt O94854)
inactive: bafetinib 0.129 | dasatinib -0.226 | [5] -0.176 | [4] 0.152 | tipifarnib 0.145

JMJD7 (UniProt P0C870)
inactive: bafetinib 0.102 | nilotinib -0.048 | [2] -0.024 | dasatinib -0.172 | [3] 0

KDELR3 (UniProt O43731)
inactive: bafetinib -0.145 | nilotinib 0.055 | [2] 0.027 | dasatinib 0.309 | [3] 0.08 | mubritinib 0.202

KLHL7 (UniProt Q8IXQ5)
inactive: bafetinib -0.097 | nilotinib 0.205 | [2] -0.303 | dasatinib -0.142 | [3] -0.143 | [5] 0.128 | tipifarnib 0.071

IWS1 (UniProt Q96ST2)
inactive: bafetinib 0.018 | [1] -0.022 | nilotinib -0.024 | [2] 0.092 | dasatinib -0.054 | [5] -0.013 | [4] 0.022 | tipifarnib -0.021 | mubritinib 0.035
active: [3] 0.311

KRTCAP2 isoform 2 (UniProt Q8N6L1)
inactive: bafetinib -0.12 | [1] -0.182 | nilotinib -0.064 | [2] -0.007 | dasatinib 0.069 | [3] 0.01 | [5] 0.069 | [4] 0.018 | mubritinib -0.009

KLHDC8B (UniProt Q8IXV7)
inactive: bafetinib -0.102 | [1] 0.1 | dasatinib 0.04 | [5] -0.025 | [4] -0.282 | mubritinib 0.035

JCHAIN (UniProt P01591)
inactive: bafetinib 0.669 | nilotinib -0.079 | [2] 0.146 | [3] 0.172 | mubritinib -0.178

JMJD4 (UniProt Q9H9V9)
inactive: bafetinib 0.084 | nilotinib 0.175 | [2] 0.177 | dasatinib 0.252 | [3] -0.18 | tipifarnib 0.019

KCNK5 (UniProt O95279)
inactive: bafetinib -0.31 | [1] 0.025 | dasatinib -0.472 | [5] 0.139 | tipifarnib -0.183 | mubritinib 0.076

JUN (UniProt P05412)
inactive: bafetinib 0.083 | nilotinib 0.239 | [2] -0.08 | [3] -0.072 | [5] -0.158 | [4] -0.066 | mubritinib -0.151
